Test results reported in the supplement of paper PMC11006884.
What follows is the remainder of the data, with few or none of the targets with a hit. Single values of this set are uncertain. The list shows a part of the results, in another mix than the full data.

Protein sequences, listed by entry. Tags and fused reporters are not part of them. Lines headed by an entry give the natural chain unless they say otherwise; changes in a name come on top.
UniProt P35219: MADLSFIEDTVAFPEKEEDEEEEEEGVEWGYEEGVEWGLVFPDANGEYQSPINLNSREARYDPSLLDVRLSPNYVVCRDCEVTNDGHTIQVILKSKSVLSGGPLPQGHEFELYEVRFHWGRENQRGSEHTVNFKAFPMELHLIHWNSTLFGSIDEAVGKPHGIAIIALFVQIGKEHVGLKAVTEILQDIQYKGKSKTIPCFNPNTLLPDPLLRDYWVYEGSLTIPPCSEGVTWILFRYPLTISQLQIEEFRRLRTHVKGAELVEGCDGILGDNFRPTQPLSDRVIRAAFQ
UniProt P40222: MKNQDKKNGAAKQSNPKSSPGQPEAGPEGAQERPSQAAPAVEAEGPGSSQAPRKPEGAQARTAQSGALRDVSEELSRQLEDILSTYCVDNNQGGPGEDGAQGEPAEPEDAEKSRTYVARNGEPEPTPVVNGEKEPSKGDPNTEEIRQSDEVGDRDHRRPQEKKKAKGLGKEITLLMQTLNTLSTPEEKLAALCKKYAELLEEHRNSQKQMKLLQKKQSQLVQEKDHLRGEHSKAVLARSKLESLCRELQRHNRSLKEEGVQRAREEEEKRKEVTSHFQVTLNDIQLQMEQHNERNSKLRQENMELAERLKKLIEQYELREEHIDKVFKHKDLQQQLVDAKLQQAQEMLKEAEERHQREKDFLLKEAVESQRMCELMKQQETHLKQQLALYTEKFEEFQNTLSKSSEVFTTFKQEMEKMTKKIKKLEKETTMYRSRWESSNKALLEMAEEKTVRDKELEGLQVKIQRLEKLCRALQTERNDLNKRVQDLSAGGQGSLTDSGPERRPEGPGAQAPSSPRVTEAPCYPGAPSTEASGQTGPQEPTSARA
UniProt P41252: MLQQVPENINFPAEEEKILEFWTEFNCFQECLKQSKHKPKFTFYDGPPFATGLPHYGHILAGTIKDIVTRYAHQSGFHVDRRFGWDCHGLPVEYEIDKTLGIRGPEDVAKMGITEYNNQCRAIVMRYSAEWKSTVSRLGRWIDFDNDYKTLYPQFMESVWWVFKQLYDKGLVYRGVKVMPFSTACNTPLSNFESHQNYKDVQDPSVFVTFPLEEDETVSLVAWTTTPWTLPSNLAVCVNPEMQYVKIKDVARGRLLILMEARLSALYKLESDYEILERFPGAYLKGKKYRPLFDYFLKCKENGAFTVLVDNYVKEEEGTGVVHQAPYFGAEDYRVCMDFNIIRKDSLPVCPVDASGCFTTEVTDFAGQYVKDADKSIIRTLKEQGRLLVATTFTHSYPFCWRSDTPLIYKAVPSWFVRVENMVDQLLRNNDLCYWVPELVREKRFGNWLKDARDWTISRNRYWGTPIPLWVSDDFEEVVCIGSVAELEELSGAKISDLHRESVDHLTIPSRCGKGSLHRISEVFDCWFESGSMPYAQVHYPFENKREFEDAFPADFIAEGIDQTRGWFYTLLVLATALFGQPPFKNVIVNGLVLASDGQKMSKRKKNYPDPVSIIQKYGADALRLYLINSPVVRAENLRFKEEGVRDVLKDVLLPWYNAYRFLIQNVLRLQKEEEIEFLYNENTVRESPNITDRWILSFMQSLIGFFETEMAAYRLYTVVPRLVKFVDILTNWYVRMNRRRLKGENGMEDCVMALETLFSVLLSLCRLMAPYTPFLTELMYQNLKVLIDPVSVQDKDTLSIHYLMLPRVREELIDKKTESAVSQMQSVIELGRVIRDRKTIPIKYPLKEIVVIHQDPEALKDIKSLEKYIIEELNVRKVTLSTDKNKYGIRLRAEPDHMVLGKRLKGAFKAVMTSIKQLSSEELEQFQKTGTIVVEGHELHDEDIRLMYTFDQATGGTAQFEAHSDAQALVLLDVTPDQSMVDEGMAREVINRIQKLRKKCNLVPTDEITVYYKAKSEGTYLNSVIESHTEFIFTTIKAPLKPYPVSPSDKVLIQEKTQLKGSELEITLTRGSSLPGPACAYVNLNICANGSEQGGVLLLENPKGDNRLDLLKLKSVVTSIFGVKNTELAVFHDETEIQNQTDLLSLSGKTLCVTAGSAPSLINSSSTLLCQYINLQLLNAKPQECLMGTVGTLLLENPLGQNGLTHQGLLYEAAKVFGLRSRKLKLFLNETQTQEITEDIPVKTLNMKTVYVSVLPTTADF
UniProt P35568: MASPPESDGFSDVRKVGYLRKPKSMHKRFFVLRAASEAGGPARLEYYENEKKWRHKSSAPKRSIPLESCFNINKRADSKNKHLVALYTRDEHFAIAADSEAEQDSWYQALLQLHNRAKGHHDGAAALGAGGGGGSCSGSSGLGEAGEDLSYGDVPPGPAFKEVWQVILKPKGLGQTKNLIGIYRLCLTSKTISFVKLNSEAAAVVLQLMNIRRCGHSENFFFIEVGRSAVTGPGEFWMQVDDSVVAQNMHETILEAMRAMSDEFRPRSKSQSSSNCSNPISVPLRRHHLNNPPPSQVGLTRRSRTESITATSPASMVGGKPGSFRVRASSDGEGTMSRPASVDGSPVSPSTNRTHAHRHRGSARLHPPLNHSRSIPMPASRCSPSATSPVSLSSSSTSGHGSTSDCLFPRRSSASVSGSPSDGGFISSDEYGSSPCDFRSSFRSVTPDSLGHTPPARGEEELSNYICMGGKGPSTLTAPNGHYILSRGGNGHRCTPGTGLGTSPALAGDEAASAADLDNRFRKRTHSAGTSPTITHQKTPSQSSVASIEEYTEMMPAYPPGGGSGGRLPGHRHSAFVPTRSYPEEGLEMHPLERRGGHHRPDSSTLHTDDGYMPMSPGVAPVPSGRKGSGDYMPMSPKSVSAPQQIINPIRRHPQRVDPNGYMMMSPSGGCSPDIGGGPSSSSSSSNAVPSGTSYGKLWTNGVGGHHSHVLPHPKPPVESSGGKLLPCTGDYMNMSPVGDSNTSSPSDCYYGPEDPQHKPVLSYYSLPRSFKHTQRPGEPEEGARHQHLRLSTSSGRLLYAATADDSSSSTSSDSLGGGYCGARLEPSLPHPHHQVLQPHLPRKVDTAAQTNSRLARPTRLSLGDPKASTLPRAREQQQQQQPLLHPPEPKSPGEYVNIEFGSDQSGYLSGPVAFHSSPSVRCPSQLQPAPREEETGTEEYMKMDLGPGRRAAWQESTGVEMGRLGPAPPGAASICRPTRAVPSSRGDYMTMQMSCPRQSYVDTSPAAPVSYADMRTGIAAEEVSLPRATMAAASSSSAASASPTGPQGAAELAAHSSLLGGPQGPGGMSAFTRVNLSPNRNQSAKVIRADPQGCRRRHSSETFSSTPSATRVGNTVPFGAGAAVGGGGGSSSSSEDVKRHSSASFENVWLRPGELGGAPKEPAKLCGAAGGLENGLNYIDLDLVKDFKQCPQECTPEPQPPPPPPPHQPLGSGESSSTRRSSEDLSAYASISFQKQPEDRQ
UniProt P40926: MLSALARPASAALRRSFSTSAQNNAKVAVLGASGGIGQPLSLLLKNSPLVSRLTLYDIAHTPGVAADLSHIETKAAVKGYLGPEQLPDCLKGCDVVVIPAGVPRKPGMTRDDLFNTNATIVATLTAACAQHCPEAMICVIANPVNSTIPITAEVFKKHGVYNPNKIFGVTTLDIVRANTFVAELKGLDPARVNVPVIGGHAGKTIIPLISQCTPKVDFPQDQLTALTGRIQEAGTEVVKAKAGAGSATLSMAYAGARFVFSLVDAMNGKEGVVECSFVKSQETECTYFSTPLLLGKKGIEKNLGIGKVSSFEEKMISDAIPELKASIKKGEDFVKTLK
UniProt P34949: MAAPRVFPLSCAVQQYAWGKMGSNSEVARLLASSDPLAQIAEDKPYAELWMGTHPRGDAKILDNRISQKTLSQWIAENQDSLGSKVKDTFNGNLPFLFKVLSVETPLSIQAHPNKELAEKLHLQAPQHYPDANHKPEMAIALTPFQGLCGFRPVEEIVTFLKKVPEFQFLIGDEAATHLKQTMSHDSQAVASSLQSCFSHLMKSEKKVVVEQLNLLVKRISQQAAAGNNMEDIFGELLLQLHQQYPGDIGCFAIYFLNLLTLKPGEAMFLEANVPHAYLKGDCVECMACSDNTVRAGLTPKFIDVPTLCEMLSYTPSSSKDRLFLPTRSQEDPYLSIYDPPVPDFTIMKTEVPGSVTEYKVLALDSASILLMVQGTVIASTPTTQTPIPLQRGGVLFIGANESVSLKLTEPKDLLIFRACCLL
UniProt P40939: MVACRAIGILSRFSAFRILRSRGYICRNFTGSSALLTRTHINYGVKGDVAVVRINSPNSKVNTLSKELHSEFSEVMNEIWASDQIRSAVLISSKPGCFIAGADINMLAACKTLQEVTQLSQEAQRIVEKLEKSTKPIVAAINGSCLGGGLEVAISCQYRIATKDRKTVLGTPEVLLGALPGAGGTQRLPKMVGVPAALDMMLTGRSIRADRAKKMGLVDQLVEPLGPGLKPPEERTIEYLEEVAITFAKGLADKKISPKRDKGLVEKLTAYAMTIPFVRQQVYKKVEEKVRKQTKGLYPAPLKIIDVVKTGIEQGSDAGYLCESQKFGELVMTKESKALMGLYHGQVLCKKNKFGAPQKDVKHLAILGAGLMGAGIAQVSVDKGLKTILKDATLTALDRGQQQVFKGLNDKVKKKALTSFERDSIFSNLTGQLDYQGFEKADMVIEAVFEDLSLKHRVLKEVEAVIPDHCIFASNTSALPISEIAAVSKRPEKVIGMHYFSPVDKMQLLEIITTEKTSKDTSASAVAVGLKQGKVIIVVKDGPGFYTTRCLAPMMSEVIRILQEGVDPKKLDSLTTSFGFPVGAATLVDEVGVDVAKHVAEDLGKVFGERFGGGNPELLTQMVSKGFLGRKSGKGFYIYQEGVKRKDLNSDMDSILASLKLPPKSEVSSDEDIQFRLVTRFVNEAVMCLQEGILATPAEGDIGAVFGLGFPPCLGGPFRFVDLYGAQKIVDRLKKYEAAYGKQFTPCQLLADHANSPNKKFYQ
UniProt P37802: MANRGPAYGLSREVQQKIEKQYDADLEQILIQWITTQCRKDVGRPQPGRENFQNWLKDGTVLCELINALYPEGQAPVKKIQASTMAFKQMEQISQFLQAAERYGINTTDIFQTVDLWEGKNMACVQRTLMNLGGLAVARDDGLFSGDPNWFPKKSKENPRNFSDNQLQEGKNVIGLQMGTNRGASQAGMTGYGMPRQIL
UniProt P35659: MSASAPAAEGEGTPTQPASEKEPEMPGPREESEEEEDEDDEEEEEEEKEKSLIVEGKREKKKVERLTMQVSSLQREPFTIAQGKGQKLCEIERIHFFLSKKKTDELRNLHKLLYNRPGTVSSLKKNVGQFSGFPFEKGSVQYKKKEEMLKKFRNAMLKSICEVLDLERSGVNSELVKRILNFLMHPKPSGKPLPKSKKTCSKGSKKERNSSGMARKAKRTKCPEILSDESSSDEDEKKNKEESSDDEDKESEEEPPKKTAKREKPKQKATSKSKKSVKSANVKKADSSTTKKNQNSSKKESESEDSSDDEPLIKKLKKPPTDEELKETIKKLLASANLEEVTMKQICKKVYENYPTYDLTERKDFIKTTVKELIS
UniProt P34897: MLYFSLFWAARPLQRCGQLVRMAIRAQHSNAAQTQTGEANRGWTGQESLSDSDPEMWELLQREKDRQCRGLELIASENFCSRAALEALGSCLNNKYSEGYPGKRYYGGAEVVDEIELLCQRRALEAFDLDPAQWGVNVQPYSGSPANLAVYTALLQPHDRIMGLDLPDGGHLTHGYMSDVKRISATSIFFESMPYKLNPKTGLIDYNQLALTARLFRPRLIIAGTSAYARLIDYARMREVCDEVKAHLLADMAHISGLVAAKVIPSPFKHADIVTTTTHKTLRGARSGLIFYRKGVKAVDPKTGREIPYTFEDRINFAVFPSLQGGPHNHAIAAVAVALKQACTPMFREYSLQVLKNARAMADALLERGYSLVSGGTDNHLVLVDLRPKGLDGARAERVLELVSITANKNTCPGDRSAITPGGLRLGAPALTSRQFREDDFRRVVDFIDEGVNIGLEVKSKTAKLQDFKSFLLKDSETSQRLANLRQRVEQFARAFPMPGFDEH
UniProt P33240: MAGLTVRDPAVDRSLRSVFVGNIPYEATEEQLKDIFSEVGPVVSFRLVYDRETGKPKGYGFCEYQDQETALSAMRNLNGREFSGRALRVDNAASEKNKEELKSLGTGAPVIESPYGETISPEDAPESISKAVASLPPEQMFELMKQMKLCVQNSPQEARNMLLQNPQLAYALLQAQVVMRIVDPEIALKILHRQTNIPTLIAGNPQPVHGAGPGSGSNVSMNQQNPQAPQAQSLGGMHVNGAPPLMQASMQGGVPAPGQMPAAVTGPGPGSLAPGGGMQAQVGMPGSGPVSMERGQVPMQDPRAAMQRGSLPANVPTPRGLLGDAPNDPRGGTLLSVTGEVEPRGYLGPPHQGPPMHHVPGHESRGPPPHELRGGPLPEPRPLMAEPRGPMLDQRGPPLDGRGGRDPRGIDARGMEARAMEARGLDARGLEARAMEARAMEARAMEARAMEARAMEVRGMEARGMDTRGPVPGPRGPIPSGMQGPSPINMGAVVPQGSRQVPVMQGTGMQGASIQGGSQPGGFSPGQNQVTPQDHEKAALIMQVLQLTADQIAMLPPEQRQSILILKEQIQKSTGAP

Each target was assayed with COC(=O)/C=C/c1ccccc1 [methyl cinnamate] (assay: log2 ratio of iodoacetamide-alkyne labeling of the cysteine site, DMSO over compound (competition); higher = stronger covalent engagement of the cysteine by the compound, active = 1 or more). Conditions: 500 µM; treatment time 1 h; system: HEK293T cell lysate.
In short: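 Reporter intensities give each cysteine's log2 competition ratio as the mean of control channels over the mean of compound channels. The samples were HEK293T lysate (2 mg/mL) given vehicle or electrophile (500 µM, 1 h, ambient temperature), then iodoacetamide alkyne (1 h), followed by click coupling to sCIP-TMT reagents, pooling, trypsin digestion overnight at 37 °C, streptavidin enrichment, acid elution, Orbitrap Eclipse LC-MS/MS with FAIMS and FragPipe quantification. Duplicate channels and three replicates were run, and cysteines quantified in only one replicate were discarded.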

log2 ratio of iodoacetamide-alkyne labeling, inactive:
MATR3 C230 (UniProt P43243) 0.304, CA8 C266 (UniProt P35219) 0.0512, TXLNA C523 (UniProt P40222) 0.162, KIF5B C858 (UniProt P33176) 0.463, HSPA9 C317 (UniProt P38646) 0.186, EIF2S3 C105 (UniProt P41091) 0.153, IARS C350 (UniProt P41252) 0.101, NUP214 C1003 (UniProt P35658) 0.304, UniProt P35568_C494 -0.0901, RPL3 C253 (UniProt P39023) 0.171, UQCRC1 C410 (UniProt P31930) 0.0727, MDH2 C93 (UniProt P40926) 0.189, MPI C11 (UniProt P34949) -0.00537, IARS C433 (UniProt P41252) -0.158, NUP62 C475 (UniProt P37198) 0.074, IARS C400 (UniProt P41252) -0.0419, UniProt P42356_C246 0.244, PPP2R1A C377 (UniProt P30153) 0.419, UniProt P41250_C211 0.0579, UniProt P41250_C616 0.152, MDH2 C285 (UniProt P40926) 0.373, LRPPRC C927 (UniProt P42704) -0.0642, UniProt P41227_C194 0.526, MDH2 C89 (UniProt P40926) 0.232, HADHA C322 (UniProt P40939) 0.0875, TAGLN2 C124 (UniProt P37802) 0.204, POLR2B C1137 (UniProt P30876) -0.0143, RPL4 C96 (UniProt P36578) 0.0605, DEK C200 (UniProt P35659) 0.478, SHMT2 C80 (UniProt P34897) -0.138, CSTF2 C62 (UniProt P33240) -0.0599, SLC19A1 C580 (UniProt P41440) 0.127, BSG C242 (UniProt P35613) 0.159, TMPO C629 (UniProt P42166) -0.0542, ETFB C42 (UniProt P38117) 0.077, PPP2R1B C306 (UniProt P30154) 0.0917, RPL4 C208 (UniProt P36578) 0.117, MDH1 C251 (UniProt P40925) 0.303
